The assay has as its target Mannan-Binding-Lectin (MBL) from human serum, captured on a mannan-coated plate (human) (UniProt P11226). Briefly: recombinant MASP-2 added to a mannan-coated plate preloaded with diluted A/B serum; plate-bound activity read with pro-urokinase and pyro-Glu-Gly-Arg-pNA.

Amino acid sequences for entries named in this document (tags omitted). Residues count along the entry.
UniProt P11226, residues 21-248: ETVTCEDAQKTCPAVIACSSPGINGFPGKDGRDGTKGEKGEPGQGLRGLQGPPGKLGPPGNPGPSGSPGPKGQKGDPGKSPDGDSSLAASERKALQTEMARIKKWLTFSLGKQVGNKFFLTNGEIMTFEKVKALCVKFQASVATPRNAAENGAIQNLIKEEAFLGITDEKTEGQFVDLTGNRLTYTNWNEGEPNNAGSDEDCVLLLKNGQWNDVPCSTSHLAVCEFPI
UniProt O00187, residues 16-686: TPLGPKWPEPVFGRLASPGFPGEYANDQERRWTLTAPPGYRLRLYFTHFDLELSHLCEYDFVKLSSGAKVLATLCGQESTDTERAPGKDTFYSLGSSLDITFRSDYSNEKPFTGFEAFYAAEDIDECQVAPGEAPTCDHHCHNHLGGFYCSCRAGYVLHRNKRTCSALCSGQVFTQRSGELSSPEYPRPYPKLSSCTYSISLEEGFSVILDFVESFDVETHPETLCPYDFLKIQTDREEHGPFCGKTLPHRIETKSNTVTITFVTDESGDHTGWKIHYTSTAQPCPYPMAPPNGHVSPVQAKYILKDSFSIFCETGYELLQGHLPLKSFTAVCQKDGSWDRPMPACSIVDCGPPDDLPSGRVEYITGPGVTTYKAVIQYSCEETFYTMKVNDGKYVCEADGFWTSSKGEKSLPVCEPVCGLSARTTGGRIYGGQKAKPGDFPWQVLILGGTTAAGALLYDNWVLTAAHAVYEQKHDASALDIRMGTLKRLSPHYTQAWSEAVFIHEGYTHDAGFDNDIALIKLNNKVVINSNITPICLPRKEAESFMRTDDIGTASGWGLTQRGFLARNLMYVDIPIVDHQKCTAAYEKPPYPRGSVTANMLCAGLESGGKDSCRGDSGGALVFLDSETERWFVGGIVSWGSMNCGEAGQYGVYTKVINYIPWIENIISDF

These are yes or no findings as the source states them, for the method shown. Some results given as binding are weak or reduced against the parent protein; the word gives no strength.

“purified recombinant MASP-2 (active form) (from UniProt O00187 16-686) (enzyme)”: the binding entry is “binds”.

For the origin of these results see US20080286803A1.
